Source: the supplement of paper PMC8728848
The other results are listed elsewhere or left out.

How the values were obtained:
Test in all cases: glycan array binding signal (z-score within array); higher = stronger binding
Details in all cases: glycan notation: IUPAC condensed, linker removed
[1] = molecular target: Neu5Ac(a2-6)Gal(b1-4)GlcNAc(b1-3)GalNAc
How it was run: (§1)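 Glycan array data came from 3228 arrays in the Consortium for Functional Glycomics database, and only arrays with an available protein sequence were kept. Glycan names were put into IUPAC-condensed notation, and columns mapping to the same glycan were averaged. The binding signal is a within-array Z-score, averaged across arrays of one protein sequence run at different concentrations or buffers and across linkers. A negative Z-score can be read as non-binding.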

[2] = molecular target: Neu5Ac(a2-6)Gal(b1-4)GlcNAc(b1-3)[Neu5Ac(a2-6)Gal(b1-4)GlcNAc(b1-6)]GalNAc
How it was run: as §1

[3] = molecular target: Neu5Ac(a2-6)Gal(b1-4)GlcNAc(b1-6)GalNAc
How it was run: as §1

[4] = molecular target: Neu5Ac(a2-6)Gal(b1-4)GlcNAc(b1-6)[Gal(b1-3)GlcNAc(b1-3)]Gal(b1-4)Glc
How it was run: as §1

[5] = molecular target: Neu5Ac(a2-6)Gal(b1-4)GlcNAc(b1-6)[Gal(b1-3)]GalNAc
How it was run: as §1

[6] = molecular target: Neu5Ac(a2-6)Gal(b1-4)GlcNAc6S
How it was run: as §1

Neu5Ac(a2-6)GalNAc = molecular target: Neu5Ac(a2-6)GalNAc
How it was run: as §1

[7] = molecular target: Neu5Ac(a2-6)GalNAc(b1-4)GlcNAc
How it was run: as §1

[8] = molecular target: Neu5Ac(a2-6)GalNAc(b1-4)GlcNAc6S
How it was run: as §1

[9] = molecular target: Neu5Ac(a2-6)GlcNAc(b1-4)GlcNAc
How it was run: as §1

[10] = molecular target: Neu5Ac(a2-6)GlcNAc(b1-4)GlcNAc(b1-4)GlcNAc
How it was run: as §1

Neu5Ac(a2-8)Neu5Ac = molecular target: Neu5Ac(a2-8)Neu5Ac
How it was run: as §1

[11] = molecular target: Neu5Ac(a2-8)Neu5Ac(a2-3)Gal(b1-3)GalNAc(b1-4)[Neu5Ac(a2-3)]Gal(b1-4)Glc
How it was run: as §1

[12] = molecular target: Neu5Ac(a2-8)Neu5Ac(a2-3)Gal(b1-3)GalNAc(b1-4)[Neu5Ac(a2-8)Neu5Ac(a2-3)]Gal(b1-4)Glc
How it was run: as §1

[13] = molecular target: Neu5Ac(a2-8)Neu5Ac(a2-3)Gal(b1-4)Glc
How it was run: as §1

[14] = molecular target: Neu5Ac(a2-8)Neu5Ac(a2-3)Gal(b1-4)GlcNAc
How it was run: as §1

[15] = molecular target: Neu5Ac(a2-8)Neu5Ac(a2-3)[Gal(b1-3)GalNAc(b1-4)]Gal(b1-4)Glc
How it was run: as §1

[16] = molecular target: Neu5Ac(a2-8)Neu5Ac(a2-3)[GalNAc(b1-4)]Gal(b1-4)Glc
How it was run: as §1

[17] = molecular target: Neu5Ac(a2-8)Neu5Ac(a2-8)Neu5Ac
How it was run: as §1

[18] = molecular target: Neu5Ac(a2-8)Neu5Ac(a2-8)Neu5Ac(a2-3)Gal(b1-4)Glc
How it was run: as §1

[19] = molecular target: Neu5Ac(a2-8)Neu5Ac(a2-8)Neu5Ac(a2-3)[Gal(b1-3)GalNAc(b1-4)]Gal(b1-4)Glc
How it was run: as §1

[20] = molecular target: Neu5Ac(a2-8)Neu5Ac(a2-8)Neu5Ac(a2-3)[GalNAc(b1-4)]Gal(b1-4)Glc
How it was run: as §1

[21] = molecular target: Neu5Ac(a2-8)Neu5Ac(a2-8)Neu5Ac(a2-8)Neu5Ac(a2-3)[GalNAc(b1-4)]Gal(b1-4)Glc
How it was run: as §1

[22] = molecular target: Neu5Ac(a2-8)Neu5Gc(a2-3)Gal(b1-4)GlcNAc
How it was run: as §1

[23] = molecular target: Neu5Ac(b2-6)Gal(b1-4)GlcNAc
How it was run: as §1

Neu5Ac(b2-6)GalNAc = molecular target: Neu5Ac(b2-6)GalNAc
How it was run: as §1

[24] = molecular target: Neu5Ac9Ac(a2-3)Gal(b1-3)GlcNAc
How it was run: as §1

[25] = molecular target: Neu5Ac9Ac(a2-3)Gal(b1-4)GlcNAc
How it was run: as §1

[26] = molecular target: Neu5Ac9Ac(a2-6)Gal(b1-4)GlcNAc
How it was run: as §1

[27] = molecular target: Neu5Gc(a2-3)Gal(b1-3)GlcNAc
How it was run: as §1

[28] = molecular target: Neu5Gc(a2-3)Gal(b1-3)[Fuc(a1-4)]GlcNAc
How it was run: as §1

Neu5Gc(a2-3)Gal(b1-4)Glc = molecular target: Neu5Gc(a2-3)Gal(b1-4)Glc
How it was run: as §1

[29] = molecular target: Neu5Gc(a2-3)Gal(b1-4)GlcNAc
How it was run: as §1

[30] = molecular target: Neu5Gc(a2-3)Gal(b1-4)GlcNAc(b1-3)Gal(b1-4)GlcNAc(b1-2)Man(a1-3)[Neu5Gc(a2-3)Gal(b1-4)GlcNAc(b1-3)Gal(b1-4)GlcNAc(b1-2)Man(a1-6)]Man(b1-4)GlcNAc(b1-4)GlcNAc
How it was run: as §1

[31] = molecular target: Neu5Gc(a2-3)Gal(b1-4)[Fuc(a1-3)]GlcNAc
How it was run: as §1

[32] = molecular target: Neu5Gc(a2-6)Gal(b1-4)GlcNAc
How it was run: as §1

Neu5Gc(a2-6)GalNAc = molecular target: Neu5Gc(a2-6)GalNAc
How it was run: as §1

[33] = molecular target: Neu5Gc(a2-8)Neu5Ac(a2-3)Gal(b1-4)GlcNAc
How it was run: as §1

[34] = molecular target: Neu5Gc(a2-8)Neu5Gc(a2-3)Gal(b1-4)GlcNAc
How it was run: as §1

[35] = molecular target: Neu5Gc(a2-8)Neu5Gc(a2-3)Gal(b1-4)GlcNAc(b1-3)Gal(b1-4)GlcNAc
How it was run: as §1

[36] = molecular target: Neu5Gc(a2-8)Neu5Gc(a2-6)Gal(b1-4)GlcNAc
How it was run: as §1

[37] = molecular target: Neu5Gc(b2-6)Gal(b1-4)GlcNAc
How it was run: as §1

B1: Gal 10 (Homo sapiens), Q05315 (protein)
chain: MSLLPVPYTEAASLSTGSTVTIKGRPLVCFLNEPYLQVDFHTEMKEESDIVFHFQVCFGRRVVMNSREYGAWKQQVESKNMPFQDGQEFELSISVLPDKYQVMVNGQSSYTFDHRIKPEAVKMVQVWRDISLTKFNVSYLKR
In the case of B1, the “glycan array binding signal (z-score)” value [1] is reported as -0.203, the “glycan array binding signal (z-score)” value [2] is reported as -1.2 and the “glycan array binding signal (z-score)” value [3] is reported as 0.274. For the same binder, the “glycan array binding signal (z-score)” value [4] was 0.056, the “glycan array binding signal (z-score)” value [5] was -0.081 and the “glycan array binding signal (z-score)” value [6] was 0.192. The “glycan array binding signal (z-score)” value (Neu5Ac(a2-6)GalNAc) was -1, the “glycan array binding signal (z-score)” value [7] was -0.642 and the “glycan array binding signal (z-score)” value [8] was 0.07. The “glycan array binding signal (z-score)” value [9] was 0.514, the “glycan array binding signal (z-score)” value [10] was 0.144 and the “glycan array binding signal (z-score)” value (Neu5Ac(a2-8)Neu5Ac) was -0.579. The “glycan array binding signal (z-score)” value [11] was -0.754, the “glycan array binding signal (z-score)” value [12] was -0.741 and the “glycan array binding signal (z-score)” value [13] was -0.158. The “glycan array binding signal (z-score)” value [14] was 1.21, the “glycan array binding signal (z-score)” value [15] was -0.37 and the “glycan array binding signal (z-score)” value [16] was 0.591. For the same binder, the “glycan array binding signal (z-score)” value [17] was -0.401, the “glycan array binding signal (z-score)” value [18] was -0.112 and the “glycan array binding signal (z-score)” value [19] was -0.351. The “glycan array binding signal (z-score)” value [20] was -0.414, the “glycan array binding signal (z-score)” value [21] was 0.562 and the “glycan array binding signal (z-score)” value [22] was 0.008. For the same binder, the “glycan array binding signal (z-score)” value [23] was 0.306, the “glycan array binding signal (z-score)” value (Neu5Ac(b2-6)GalNAc) was 0.803 and the “glycan array binding signal (z-score)” value [24] was -0.819. For the same binder, the “glycan array binding signal (z-score)” value [25] was -0.479, the “glycan array binding signal (z-score)” value [26] was -0.632 and the “glycan array binding signal (z-score)” value [27] was -0.31. For the same binder, the “glycan array binding signal (z-score)” value [28] was -0.457, the “glycan array binding signal (z-score)” value (Neu5Gc(a2-3)Gal(b1-4)Glc) was -0.539 and the “glycan array binding signal (z-score)” value [29] was -0.004. For the same binder, the “glycan array binding signal (z-score)” value [30] was -0.355, the “glycan array binding signal (z-score)” value [31] was 0.205 and the “glycan array binding signal (z-score)” value [32] was -0.495. For the same binder, the “glycan array binding signal (z-score)” value (Neu5Gc(a2-6)GalNAc) was 0.053, the “glycan array binding signal (z-score)” value [33] was -0.6 and the “glycan array binding signal (z-score)” value [34] was -0.793. For the same binder, the “glycan array binding signal (z-score)” value [35] was 0.074, the “glycan array binding signal (z-score)” value [36] was -0.696 and the “glycan array binding signal (z-score)” value [37] was -0.402.
